In patent publication US20020039567A1, “Methods of treating bone or cartilage conditions by the administration of creatine” (priority 1998, published 2002):

Test system: osteoblasts (monolayer culture)
Test: TEM ultrastructure, monolayer osteoblast cell culture
Format: cell-based, rat
Details: control vs 10 mM, 20 mM creatine, 1 mM, 5 mM GPA

Structure (SMILES)	ultrastructure (TEM)
N=C(N)NCCC(=O)O [GPA, beta-guanidinopropionic acid]	no obvious differences
CN(CC(=O)O)C(=N)N [creatine]	no obvious differences
